Values from PubChem BioAssay AID1508597 (Cure First, 2020).

- Screen: 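Survival screen with siRNA in ovarian cancer cells derived from patients, with or without rucaparib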 (primary screen)
- System: human ovarian carcinoma lines grown from tumours: OCI-P5x (papillary serous) and OCI-C5x (clear cell)
- Reagent: siRNA pool against human genes, 1.25 pmol siRNA per well
- Time to read-out: 72 h or 96 h, depending on the cell culture
- Challenge: rucaparib 20 µM (about IC30) or vehicle, present until read-out
- Read-out: 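ATP luminescence measured at 72 or 96 h according to the culture, then normalised and expressed as percent viability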
- Reading the numbers: viability, normalised: higher = more viable cells remaining
- Call rule: 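a well counts as a hit if its normalised viability is under 80 percent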
- Meaning of the calls: active = viability under 80%; inactive = viability 80% or more
The whole screen tested about 2,100 reagents; this is a part drawn at random. 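Calls flag viability under 80% in either arm, not effects specific to rucaparib; the reference for percent is not stated.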 The record does not give: the 100% reference.

target gene | rucaparib or vehicle | cell line | technical replicate | viability, normalised (%) | outcome
AKAP13 | Rucaparib | OCI-C5x (clear cell) | 1 | 66.4 | active
AKAP13 | Rucaparib | OCI-C5x (clear cell) | 2 | 48.6 | active
AKAP13 | Rucaparib | OCI-C5x (clear cell) | 3 | 62.2 | active
AKAP13 | Rucaparib | OCI-P5x (serous) | 1 | 108 | inactive
AKAP13 | Rucaparib | OCI-P5x (serous) | 2 | 104 | inactive
AKAP13 | Rucaparib | OCI-P5x (serous) | 3 | 57.9 | active
AKAP13 | Vehicle | OCI-C5x (clear cell) | 1 | 74.6 | active
AKAP13 | Vehicle | OCI-C5x (clear cell) | 2 | 63.4 | active
AKAP13 | Vehicle | OCI-C5x (clear cell) | 3 | 44.6 | active
AKAP13 | Vehicle | OCI-P5x (serous) | 1 | 83.3 | inactive
AKAP13 | Vehicle | OCI-P5x (serous) | 2 | 94.6 | inactive
AKAP13 | Vehicle | OCI-P5x (serous) | 3 | 90.1 | inactive
S100A6 | Rucaparib | OCI-C5x (clear cell) | 1 | 40.8 | active
S100A6 | Rucaparib | OCI-C5x (clear cell) | 2 | 44.5 | active
S100A6 | Rucaparib | OCI-C5x (clear cell) | 3 | 37.3 | active
S100A6 | Rucaparib | OCI-P5x (serous) | 1 | 40.4 | active
S100A6 | Rucaparib | OCI-P5x (serous) | 2 | 46 | active
S100A6 | Rucaparib | OCI-P5x (serous) | 3 | 49.6 | active
S100A6 | Vehicle | OCI-C5x (clear cell) | 1 | 30.2 | active
S100A6 | Vehicle | OCI-C5x (clear cell) | 2 | 36.4 | active
S100A6 | Vehicle | OCI-C5x (clear cell) | 3 | 30.3 | active
S100A6 | Vehicle | OCI-P5x (serous) | 1 | 51 | active
S100A6 | Vehicle | OCI-P5x (serous) | 2 | 59.9 | active
S100A6 | Vehicle | OCI-P5x (serous) | 3 | 66.5 | active

Next part; the last 7 above are carried over.
target gene | rucaparib or vehicle | cell line | technical replicate | viability, normalised (%) | outcome
S100A6 | Rucaparib | OCI-P5x (serous) | 3 | 49.6 | active
S100A6 | Vehicle | OCI-C5x (clear cell) | 1 | 30.2 | active
S100A6 | Vehicle | OCI-C5x (clear cell) | 2 | 36.4 | active
S100A6 | Vehicle | OCI-C5x (clear cell) | 3 | 30.3 | active
S100A6 | Vehicle | OCI-P5x (serous) | 1 | 51 | active
S100A6 | Vehicle | OCI-P5x (serous) | 2 | 59.9 | active
S100A6 | Vehicle | OCI-P5x (serous) | 3 | 66.5 | active
DPYD | Rucaparib | OCI-C5x (clear cell) | 1 | 51.1 | active
DPYD | Rucaparib | OCI-C5x (clear cell) | 2 | 69.4 | active
DPYD | Rucaparib | OCI-C5x (clear cell) | 3 | 64.9 | active
DPYD | Rucaparib | OCI-P5x (serous) | 1 | 77.8 | active
DPYD | Rucaparib | OCI-P5x (serous) | 2 | 67.6 | active
DPYD | Rucaparib | OCI-P5x (serous) | 3 | 67.3 | active
DPYD | Vehicle | OCI-C5x (clear cell) | 1 | 41.8 | active
DPYD | Vehicle | OCI-C5x (clear cell) | 2 | 44.2 | active
DPYD | Vehicle | OCI-C5x (clear cell) | 3 | 48.8 | active
DPYD | Vehicle | OCI-P5x (serous) | 1 | 62 | active
DPYD | Vehicle | OCI-P5x (serous) | 2 | 59.3 | active
DPYD | Vehicle | OCI-P5x (serous) | 3 | 50.7 | active
TDRD3 | Rucaparib | OCI-C5x (clear cell) | 1 | 55.1 | active
TDRD3 | Rucaparib | OCI-C5x (clear cell) | 2 | 40.3 | active
TDRD3 | Rucaparib | OCI-C5x (clear cell) | 3 | 35.5 | active
TDRD3 | Rucaparib | OCI-P5x (serous) | 1 | 61.9 | active
TDRD3 | Rucaparib | OCI-P5x (serous) | 2 | 59.5 | active
TDRD3 | Rucaparib | OCI-P5x (serous) | 3 | 49.8 | active
TDRD3 | Vehicle | OCI-C5x (clear cell) | 1 | 43.4 | active
TDRD3 | Vehicle | OCI-C5x (clear cell) | 2 | 43 | active
TDRD3 | Vehicle | OCI-C5x (clear cell) | 3 | 44.9 | active
TDRD3 | Vehicle | OCI-P5x (serous) | 1 | 46.2 | active
TDRD3 | Vehicle | OCI-P5x (serous) | 2 | 62.2 | active
TDRD3 | Vehicle | OCI-P5x (serous) | 3 | 42.1 | active
DAPK1 | Rucaparib | OCI-C5x (clear cell) | 1 | 71.1 | active
DAPK1 | Rucaparib | OCI-C5x (clear cell) | 2 | 79.4 | active
DAPK1 | Rucaparib | OCI-C5x (clear cell) | 3 | 91.2 | inactive
DAPK1 | Rucaparib | OCI-P5x (serous) | 1 | 99.6 | inactive
DAPK1 | Rucaparib | OCI-P5x (serous) | 2 | 114 | inactive
DAPK1 | Rucaparib | OCI-P5x (serous) | 3 | 98.4 | inactive
DAPK1 | Vehicle | OCI-C5x (clear cell) | 1 | 55.7 | active
DAPK1 | Vehicle | OCI-C5x (clear cell) | 2 | 65.1 | active
DAPK1 | Vehicle | OCI-C5x (clear cell) | 3 | 63.2 | active
DAPK1 | Vehicle | OCI-P5x (serous) | 1 | 120 | inactive
DAPK1 | Vehicle | OCI-P5x (serous) | 2 | 101 | inactive
DAPK1 | Vehicle | OCI-P5x (serous) | 3 | 124 | inactive
